{"source": "patent US11771735B2", "about": "“Composition for improving or preventing nonalcoholic fatty liver” (KOHJIN LIFE SCIENCES CO., LTD., priority 2015, dated 2023)", "system": "Mice (C57/B6J) fed with high-fat food", "details": "all groups compared; glutathione 6 and 60 mg/kg/day", "from_the_text": "Mice (C57/B6J, 8 weeks old male) were divided into 4 groups (5 animals each), and the first group (DB) was freely fed with ordinary food (CertifiedDiet “MF” manufactured by Oriental Yeast Co., ltd.). The second group (HFD) was freely fed with high-fat food (High Fat Diet 32, manufactured by CLEA Japan, Inc.), […].\nWhen the mouse was 20 weeks old, the body weight, the liver weight, the serum aspartate aminotransferase (AST), the alanine aminotransferase (ALT), the serum triglyceride (TG), the free fatty acid value (FFA) and the total cholesterol value (T-cho) were measured.", "data": [{"smiles": "N[C@@H](CCC(=O)N[C@@H](CS)C(=O)NCC(=O)O)C(=O)O", "note": "[glutathione]", "values": [{"measurement": "consumption amount of feed", "value": "no significant difference"}, {"measurement": "consumption amount of water", "value": "no significant difference"}]}]}
